Measured values published in publication PMC7094869.

Amino acid sequences for entries named in this document (tags omitted).
UniProt P25823: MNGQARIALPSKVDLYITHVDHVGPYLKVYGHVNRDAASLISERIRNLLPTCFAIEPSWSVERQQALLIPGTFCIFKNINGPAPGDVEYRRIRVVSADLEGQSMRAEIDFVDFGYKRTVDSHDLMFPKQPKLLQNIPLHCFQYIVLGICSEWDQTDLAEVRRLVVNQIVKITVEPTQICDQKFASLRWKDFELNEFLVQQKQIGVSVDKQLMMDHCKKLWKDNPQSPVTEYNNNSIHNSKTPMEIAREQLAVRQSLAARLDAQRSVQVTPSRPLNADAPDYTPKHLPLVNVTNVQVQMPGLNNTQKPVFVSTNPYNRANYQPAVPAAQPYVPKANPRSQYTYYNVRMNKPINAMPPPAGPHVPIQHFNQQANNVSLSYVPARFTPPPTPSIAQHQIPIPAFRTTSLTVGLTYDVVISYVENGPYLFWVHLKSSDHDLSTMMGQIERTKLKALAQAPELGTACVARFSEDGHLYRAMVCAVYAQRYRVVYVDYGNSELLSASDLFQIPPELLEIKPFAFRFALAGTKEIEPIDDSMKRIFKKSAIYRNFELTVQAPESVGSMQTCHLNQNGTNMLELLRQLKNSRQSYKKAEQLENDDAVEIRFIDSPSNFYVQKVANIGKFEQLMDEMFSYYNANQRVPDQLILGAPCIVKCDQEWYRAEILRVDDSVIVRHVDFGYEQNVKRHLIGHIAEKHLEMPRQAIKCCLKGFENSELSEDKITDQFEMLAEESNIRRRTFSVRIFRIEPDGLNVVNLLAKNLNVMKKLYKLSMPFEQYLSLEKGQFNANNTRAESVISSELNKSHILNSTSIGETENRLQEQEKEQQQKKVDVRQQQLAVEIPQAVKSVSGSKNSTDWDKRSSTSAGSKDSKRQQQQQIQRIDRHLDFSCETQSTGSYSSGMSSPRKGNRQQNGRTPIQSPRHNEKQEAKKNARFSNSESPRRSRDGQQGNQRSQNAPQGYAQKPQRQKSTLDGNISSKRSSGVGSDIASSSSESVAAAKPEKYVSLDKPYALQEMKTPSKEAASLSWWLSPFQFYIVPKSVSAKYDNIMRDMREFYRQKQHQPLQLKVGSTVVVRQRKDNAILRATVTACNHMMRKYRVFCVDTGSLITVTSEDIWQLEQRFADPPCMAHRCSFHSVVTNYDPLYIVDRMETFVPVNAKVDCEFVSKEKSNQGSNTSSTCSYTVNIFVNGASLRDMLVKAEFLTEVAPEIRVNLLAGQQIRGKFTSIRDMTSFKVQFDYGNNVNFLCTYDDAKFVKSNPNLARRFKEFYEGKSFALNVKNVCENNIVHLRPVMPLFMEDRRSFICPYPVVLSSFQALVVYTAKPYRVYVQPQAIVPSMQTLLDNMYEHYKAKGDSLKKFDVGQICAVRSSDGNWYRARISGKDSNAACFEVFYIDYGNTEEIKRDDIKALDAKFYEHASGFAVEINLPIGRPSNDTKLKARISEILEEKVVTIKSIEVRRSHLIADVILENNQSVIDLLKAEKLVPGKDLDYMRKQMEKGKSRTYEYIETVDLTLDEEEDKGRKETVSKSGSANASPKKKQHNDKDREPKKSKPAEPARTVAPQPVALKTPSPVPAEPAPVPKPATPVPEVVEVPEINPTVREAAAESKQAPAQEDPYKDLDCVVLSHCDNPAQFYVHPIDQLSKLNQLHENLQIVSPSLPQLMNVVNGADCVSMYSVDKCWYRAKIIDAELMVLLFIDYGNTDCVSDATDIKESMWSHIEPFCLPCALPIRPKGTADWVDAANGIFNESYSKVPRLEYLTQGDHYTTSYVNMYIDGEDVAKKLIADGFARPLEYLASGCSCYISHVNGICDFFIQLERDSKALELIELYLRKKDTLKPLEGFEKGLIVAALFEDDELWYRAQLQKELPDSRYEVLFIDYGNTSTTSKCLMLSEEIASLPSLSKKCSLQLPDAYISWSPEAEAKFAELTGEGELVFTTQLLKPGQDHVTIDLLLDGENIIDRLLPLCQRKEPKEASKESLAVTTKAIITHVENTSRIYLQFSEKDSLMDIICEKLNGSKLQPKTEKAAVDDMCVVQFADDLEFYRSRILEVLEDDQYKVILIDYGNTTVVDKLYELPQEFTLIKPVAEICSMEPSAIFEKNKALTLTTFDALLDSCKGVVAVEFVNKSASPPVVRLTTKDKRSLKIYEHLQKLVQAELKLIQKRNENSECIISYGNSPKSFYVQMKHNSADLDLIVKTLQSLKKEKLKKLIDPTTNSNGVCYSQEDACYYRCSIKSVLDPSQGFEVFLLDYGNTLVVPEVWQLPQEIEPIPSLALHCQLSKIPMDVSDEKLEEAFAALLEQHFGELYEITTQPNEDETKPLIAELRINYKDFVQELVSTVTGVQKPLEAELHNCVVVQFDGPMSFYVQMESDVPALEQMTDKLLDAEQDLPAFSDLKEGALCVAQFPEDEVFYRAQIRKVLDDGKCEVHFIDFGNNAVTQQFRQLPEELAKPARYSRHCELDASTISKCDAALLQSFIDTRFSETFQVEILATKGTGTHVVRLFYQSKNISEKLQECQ
UniProt Q27268: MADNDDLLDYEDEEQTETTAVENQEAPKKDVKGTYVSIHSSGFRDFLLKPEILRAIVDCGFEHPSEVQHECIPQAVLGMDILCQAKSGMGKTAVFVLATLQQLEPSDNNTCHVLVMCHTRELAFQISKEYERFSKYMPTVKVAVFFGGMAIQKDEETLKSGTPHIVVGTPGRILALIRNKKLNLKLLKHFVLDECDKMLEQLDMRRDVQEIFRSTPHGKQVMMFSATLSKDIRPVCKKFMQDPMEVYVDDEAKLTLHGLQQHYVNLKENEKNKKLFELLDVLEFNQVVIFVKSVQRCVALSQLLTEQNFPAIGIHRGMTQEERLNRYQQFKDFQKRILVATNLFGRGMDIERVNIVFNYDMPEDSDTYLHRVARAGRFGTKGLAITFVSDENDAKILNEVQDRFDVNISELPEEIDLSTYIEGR

Tests used:
[1] = molecular target: T1, Klp10A (Drosophila melanogaster (endogenous in testes)) (UniProt Q960Z0); test: affinity purification with mass spectrometry; anti-Klp10A pull down from Dpp testis (nos>dpp, SG tumor); two experiments; LC/MS/MS
T1 sequence: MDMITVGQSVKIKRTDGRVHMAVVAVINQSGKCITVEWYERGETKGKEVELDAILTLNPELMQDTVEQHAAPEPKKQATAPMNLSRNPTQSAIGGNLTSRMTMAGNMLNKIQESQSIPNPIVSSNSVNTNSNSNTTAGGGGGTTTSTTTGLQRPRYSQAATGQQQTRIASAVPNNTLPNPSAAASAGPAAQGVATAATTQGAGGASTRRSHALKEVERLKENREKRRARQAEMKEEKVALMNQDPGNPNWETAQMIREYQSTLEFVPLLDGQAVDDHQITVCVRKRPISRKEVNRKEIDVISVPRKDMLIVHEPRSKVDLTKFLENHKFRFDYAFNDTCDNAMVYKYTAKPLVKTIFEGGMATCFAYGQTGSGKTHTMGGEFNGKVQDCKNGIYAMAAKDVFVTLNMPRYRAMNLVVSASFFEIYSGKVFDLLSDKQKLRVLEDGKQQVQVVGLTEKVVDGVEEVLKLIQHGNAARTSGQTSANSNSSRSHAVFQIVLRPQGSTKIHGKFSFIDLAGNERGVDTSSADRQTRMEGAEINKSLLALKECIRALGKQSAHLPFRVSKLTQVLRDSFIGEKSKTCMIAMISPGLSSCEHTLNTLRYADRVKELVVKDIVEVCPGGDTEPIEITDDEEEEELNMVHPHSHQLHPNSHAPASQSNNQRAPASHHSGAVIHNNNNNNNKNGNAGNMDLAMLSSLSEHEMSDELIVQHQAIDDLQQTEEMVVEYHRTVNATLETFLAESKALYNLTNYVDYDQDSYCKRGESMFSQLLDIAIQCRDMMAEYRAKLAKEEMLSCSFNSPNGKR

[2] = molecular target: T1, Klp10A (Drosophila melanogaster (endogenous in testes)); test: affinity purification with mass spectrometry; guinea-pig anti-Klp10A on Protein A-Dynabeads; 250 pairs of nos-gal4>UAS-upd testes; 10 mM Tris-HCl pH 7.5, 150 mM NaCl, 0.5 mM EDTA, 0.1% NP40; control pre-immune IgG; two experiments; LC/MS/MS
[3] = molecular target: T2, GFP-Klp10A (Drosophila melanogaster) (UniProt Q960Z0); test: affinity purification with mass spectrometry; GFP-Trap agarose beads on GFP-Klp10A; 1500 pairs of nos-gal4>UAS-upd, UAS-gfp-klp10A testes; 10 mM Tris-HCl pH 7.5, 150 mM NaCl, 0.5 mM EDTA, 0.1% NP40; control GFP from Upd testis; LC-MS/MS
T2 sequence: T1 sequence

binding [1]: binds
binding [2]: binds
Molecule: Hsp90

binding [1]: binds
binding [2]: binds
Molecule: Qin

binding [1]: binds
binding [3]: binds
binding [2]: binds
Molecule: Tudor (from UniProt P25823 1-2515)

binding [1]: binds
binding [2]: binds
Molecule: UAP56 (from UniProt Q27268 1-424)

binding [1]: binds
binding [2]: binds
Molecule: Tapas

binding [2]: binds
B1: Papi (protein, UniProt Q9VQ91 1-576)
chain: MLRNTPFGATPTYKLLLGFGLCSLGGAMLYAYFKTRNDEEEADSGGQRPASGIRGQTEEQKPQKEVCLKIVVDNEHVPLIMGRGGSNIKLIEEKTLAKIRLRDKDSGHKFCDISGVPDAVKAARALLIKEIERAPVVKVELQVPQRLASKINGRGGELLQEIRSSSLAKLNIDLNGRNGKAKITIIGNQKQVNIARKMLDDQIEEDEELVRSMEEVEQRREPRRSPTNSIASSMYSSQTSLSSHTQPRDKLMASKGEGKPMEVYVSAVASPTKFWVQLIGPQSKKLDSMVQEMTSYYSSAENRAKHVLTAPYVGQIVAAVFKFDEKWYRAEIVDIMPNQYNPKEQVIDLYFVDYGDSEYISPADICELRTDFLTLRFQAVECFLANVKSTIQTEPITWPKSSIAKFEELTEVAHWRKLIARVVTYKERPRATTAVSAAAKEGTPLPGVELFDPADNSELNIADLMITQGFALPLDDSYPVRSRSSTPSSNSDSTIEELCVSNPVTPLTPHSPMSMSIDVDSITQAENEHLAQQLQHLQHKLNGNDIKNINPAKLTATDLENGNNNNASTTNGASAH

binding [1]: binds
B2: Maelstrom (protein, UniProt Q9VNS0 1-459)
chain: MAPKKHSGFMMFVNEWRNRNAEGRRMTLAQAVSHCGTIWEKMNTQQRGPYNSGGKDANVAQRAKRESSNGHGQVDKAQREATESLMDMKRTIERLVLNAKMSHDLENAKFVFVAFNYFTKALTTDVYVPAEFAACEYSLKEGIRSIYSTMIDPGQIIFGQGSDALLHSSTTHDLPLPPNALGEKNMTKLYRNIVDYLSKCQGKGKTLVVFTPAENITMVKSCFRYLECDDDFRDGGEKIQVFDIQYLLFILKKEVMNVADLNDEKINKFATDAFFKKDFFEFTAGIACQYHEDNDRTKYCTQSMVTRWAYTFTDFMCGDLAITVQPGKHIPAQTKPNYLIISSYASSLDHESSFDSFYSLPGSGVKKESQPEACSLSSSRLSVASSSYKPIDHTSFAANLNEVSEFPSLGMRNSSKHHGIAASAQREWNARNLPTHSRLIRKVSDNDFSVNGADGKLKK

binding [1]: binds
binding [3]: binds
binding [2]: binds
B3: Piwi (protein, UniProt Q9VKM1 1-843)
chain: MADDQGRGRRRPLNEDDSSTSRGSGDGPRVKVFRGSSSGDPRADPRIEASRERRALEEAPRREGGPTERKPWGDQYDYLNTRPAELVSKKGTDGVPVMLQTNFFRLKTKPEWRIVHYHVEFEPSIENPRVRMGVLSNHANLLGSGYLFDGLQLFTTRKFEQEITVLSGKSKLDIEYKISIKFVGFISCAEPRFLQVLNLILRRSMKGLNLELVGRNLFDPRAKIEIREFKMELWPGYETSIRQHEKDILLGTEITHKVMRTETIYDIMRRCSHNPARHQDEVRVNVLDLIVLTDYNNRTYRINDVDFGQTPKSTFSCKGRDISFVEYYLTKYNIRIRDHNQPLLISKNRDKALKTNASELVVLIPELCRVTGLNAEMRSNFQLMRAMSSYTRMNPKQRTDRLRAFNHRLQNTPESVKVLRDWNMELDKNVTEVQGRIIGQQNIVFHNGKVPAGENADWQRHFRDQRMLTTPSDGLDRWAVIAPQRNSHELRTLLDSLYRAASGMGLRIRSPQEFIIYDDRTGTYVRAMDDCVRSDPKLILCLVPNDNAERYSSIKKRGYVDRAVPTQVVTLKTTKNRSLMSIATKIAIQLNCKLGYTPWMIELPLSGLMTIGFDIAKSTRDRKRAYGALIASMDLQQNSTYFSTVTECSAFDVLANTLWPMIAKALRQYQHEHRKLPSRIVFYRDGVSSGSLKQLFEFEVKDIIEKLKTEYARVQLSPPQLAYIVVTRSMNTRFFLNGQNPPPGTIVDDVITLPERYDFYLVSQQVRQGTVSPTSYNVLYSSMGLSPEKMQKLTYKMCHLYYNWSGTTRVPAVCQYAKKLATLVGTNLHSIPQNALEKKFYYL

binding [1]: binds
binding [2]: binds
B4: Argonaute 3 (protein, UniProt Q7PLK0 1-867)
chain: MSGRGNLLSLFNKNAGNMGKSISSKDHEIDSGLDFNNSESSGERLLSSHNIETDLITTLQHVNISVGRGRARLIDTLKTDDHTSNQFITSESKENITKKTKGPESEAIASENGLFFPDLIYGSKGSSVNIYCNYLKLTTDESKGVFNYEVRFFPPIDSVHLRIKYLNDHKDKLGGTKTFDGNTLYLPILLPNKMTVFISKAEDVELQIRILYKKKEEMRNCTQLYNILFDRVMKVLNYVKFDRKQFDPSRPKIIPLAKLEVWPGYVTAVDEYKGGLMLCCDVSHRILCQKTVLEMLVDLYQQNVEHYQESARKMLVGNIVLTRYNNRTYKINDICFDQNPTCQFEIKTGCTSYVEYYKQYHNINIKDVNQPLIYSIKKSRGIPAERENLQFCLIPELCYLTGLRDEVRSDNKLMREIATFTRVSPNQRQMALNKFYENVSNTPAAQEILNSWGLSLTNNSNKISGRQMDIEQIYFSKISVSAGRSAEFSKHAVTNEMLKVVHLSKWIIIHLRNYRQAATSLLDNMKQACESLGMNISNPTMISLDHDRIDAYIQALRRNITMNTQMVVCICHNRRDDRYAAIKKICCSEIPIPSQVINAKTLQNDLKIRSVVQKIVLQMNCKLGGSLWTVKIPFKNVMICGIDSYHDPSNRGNSVAAFVASINSSYSQWYSKAVVQTKREEIVNGLSASFEIALKMYRKRNGKLPTNIIIYRDGIGDGQLYTCLNYEIPQFEMVCGNRIKISYIVVQKRINTRIFSGSGIHLENPLPGTVVDQHITKSNMYDFFLVSQLVRQGTVTPTHYVVLRDDCNYGPDIIQKLSYKLCFLYYNWAGTVRIPACCMYAHKLAYLIGQSIQRDVAEALSEKLFYL

binding [3]: binds
B5: Vrento (protein, UniProt Q9VCU7 1-691)
chain: MESESSQDDWSAFDPMSREYYDQVGNRYTNESGQKLIMEAPLPPKDEKEQRATRQAKYPYLVVPKSSPYVTEKMLINFFGRALIKEMEFRRLSRVYFVYFENIASLETAQQRVQRYPNLIKCITGRPQKEREITSDPVTSTEPMPTPGPAISATERTPVNHNREVPISTGGQNHPEFFRPPLVTKDDYKRGSLLATNDPIQRYLNVKYEFALERHDIYKLKDETRIPQVVLHFRSGRTIPLSTVAVTEEDKTKSLLEDGVSKCVVCQNWTDTFCKLCKMPFCNASCFADVAEQHKQACGKGEILNLDEKVGRKYPKPGLPPSGSKVRITAFEQTNVVYVRSADIQIDIAYYTVLTEVMMLGKDASKLQSTPVCGQIVLYKFEGHMSRAMVLNVDNIKEIYVVFIDFGSVEVTQLERLYECSSYLAGLTCYPVAVKLRGVPRRFVGPNIREVMYELDQSLVFNIKYSSREYDTSKGMQVVVMTEIDINRSLNRLFKTILTPVEPSVSDLGYKEDCLPYIPLHCGKNINVVVMDNTFIQCGFIYCTSIDLAYEVTKMQRDIQEYGEKIAKCATYAPPINELCIAKYEGKWRRGLSVELVGDGYPSILFIDYGNIVPTHVTDIRPYPPQFIFPIMTTQLDLIGVPEKPTDEQIKWLDKNYPIGSVITCSEITFDEETNSYSTRIEKLQEFLSLD

binding [3]: binds
B6: Shutdown (protein, UniProt Q9W1I9 1-455)
chain: MEENFEPYTPQLLKNPLSYSDLVKKGVEFEVDNSQQNHARDLGLDSDSDSDYEDALDVDGEELRSPWTYSFDELRALMSEIDENIYKRITRTGHVDREAVPNKARVSVRYSGYWEGETAPFDSSLLRGSKFVFETGQGTVVEGLEVAVRSMRPYEQAEFIISYKLLFGELGCPPRIKPKADALFKVEVIDYSLIGDAKGIDAIPQEDRDKFCVVYPKAVDLHLHGKDSVKLGRYQSAATAFERAVSSLNYCRMANDEEERKQTELLTTLNQNLMIVYNKMNKPKRACIMMKALRHLTMGNPSCKALFQEGRALAALGEYNLARNAYLQAQAKQPANKEISDEIISMNKRISKYEEASRDIWARAFSLKNSKSDVRKTPAQLEKEAKEQDFNDKMEDLIRRFKNTSDQQVSFSRKSYSNAQFDATCKLAKEHNLKLTLSPIQEDVLTLSKPDVKFA

binding [3]: binds
B7: Krimper (protein, UniProt A1ZAC4 1-746)
chain: MNLEDISMIMKLFDSNMHKLQGNLRSYQTEMHQIHKELTEKLSHADLLYRSLIPLHDHLVASLSEVNAHVMKLNVQLHINRQSVRLGDYEYYEKSIDNPYSSIRSGLQAIEKPGCAEAICQSSKPAFVECLPSSTSEEVPVVAVQEASSTNQLDAISVVNENLSEERDATPQPLAVSKNMEETMPSNPFHEQLEGSLEEIPVGSKIVVETEKANNPVRSEASAPATSDNQSLLAAKQGTQTIGTGICNKISKSTINMPNNWQLENPTEVTAASIEKVNKLPKSPRNRFLLPPKGGTETTRRDIYNQILKDMAAFPENTIVTAVLASVDVTDNCAYVAKWDESSDRIKKVLQRQLPLQELDQLPDYGDIFAVLDSINNIITRITINSSSAGGGYDAYLIDFGEHIHFDGNETIFKLPDDIKRLPAQAIRCDLINCDIANMHCFVNTYIKIRVHENNNSTLVAEPVIDRLSRPTKTNTTKYPAGITEDDMAMLNEIDESTSDPLKAVLGFRPKDEQRICRHYDPKLNGCFKGNNCRFAHEPFAPNGATKDVELARALPETIFDTTVHFEIGSIVGILITFINGPTEVYGQFLDGSPPLVWDKKDVPENKRTFKSKPRLLDIVLALYSDGCFYRAQIIDEFPSEYMIFYVDYGNTEFVPLSCLAPCENVDSFKPHRVFSFHIEGIVRSKNLTHQKTIECIEYLKSKLLNTEMNVHLVQRLPDGFLIRFLDDWKYIPEQLLQRNYAQVSQ

Results are given in words; binding and its absence hold for the method and conditions named. Binding seen in cells or lysates may run through a third protein. These calls come from enrichment with a bait or labelling near it, and not all partners need be listed. For part of these data: Tags and fused reporters may be left off the sequences shown. Each block holds one molecule with its values, some of them ahead of it.
